Consider one substance from article PMC5307883.

Chains of the proteins cited; added tags and fusions are not shown.
UniProt P00352: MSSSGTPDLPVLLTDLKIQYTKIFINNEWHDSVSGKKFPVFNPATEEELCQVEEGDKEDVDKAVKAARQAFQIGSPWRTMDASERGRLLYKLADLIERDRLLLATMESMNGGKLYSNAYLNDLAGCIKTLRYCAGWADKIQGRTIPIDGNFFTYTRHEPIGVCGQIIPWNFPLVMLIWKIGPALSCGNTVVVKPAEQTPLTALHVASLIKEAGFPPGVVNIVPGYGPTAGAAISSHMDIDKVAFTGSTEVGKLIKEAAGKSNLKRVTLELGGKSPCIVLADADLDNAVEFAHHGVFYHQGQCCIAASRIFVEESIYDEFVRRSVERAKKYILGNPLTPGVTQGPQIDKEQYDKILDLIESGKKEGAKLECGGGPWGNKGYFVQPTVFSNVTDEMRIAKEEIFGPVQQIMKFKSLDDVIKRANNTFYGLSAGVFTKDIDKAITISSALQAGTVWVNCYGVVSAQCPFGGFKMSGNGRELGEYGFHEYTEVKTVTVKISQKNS

Assay [1] concerns the target T1, Aurora kinase A (human (endogenous in BxPC3 and Panc1)) (UniProt O14965).
T1 sequence: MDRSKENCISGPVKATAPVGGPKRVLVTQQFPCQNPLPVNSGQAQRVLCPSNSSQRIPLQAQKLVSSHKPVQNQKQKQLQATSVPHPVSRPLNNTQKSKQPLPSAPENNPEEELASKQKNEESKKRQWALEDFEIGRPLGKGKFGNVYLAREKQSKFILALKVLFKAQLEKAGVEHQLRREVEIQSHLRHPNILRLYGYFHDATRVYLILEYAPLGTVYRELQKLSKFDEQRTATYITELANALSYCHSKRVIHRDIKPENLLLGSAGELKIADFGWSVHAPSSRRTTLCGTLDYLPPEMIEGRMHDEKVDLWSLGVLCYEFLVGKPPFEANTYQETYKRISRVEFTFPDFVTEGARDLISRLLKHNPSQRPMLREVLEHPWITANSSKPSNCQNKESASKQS
The assay is described as follows: co-IP; endogenous proteins of Panc1 cells; reciprocal immunoprecipitation.

Assay [2] addresses T1, Aurora kinase A (human (endogenous in BxPC3 and Panc1)). The assay is described as follows: co-IP; endogenous proteins of BxPC3 cells; ALDH1A1 immune complex blotted for AURKA and AURKA immune complex blotted for ALDH1A1; IgG as negative control.

These are yes or no findings as the source states them, for the method shown. In cells and extracts the contact can be indirect. Some entries that bind do so weakly or less than the wild type.

Consider “aldehyde dehydrogenase 1A1 (from UniProt P00352 1-501) (enzyme)”, for which the binding entry in assay [1] and in assay [2] was “binds” throughout.
